{"source": "patent US9682151B2", "about": "“Peptides whose uptake in cells is controllable” (The Regents of the University of California, priority 2009, dated 2017)", "origin": "cited, not measured here", "conditions": "cited from earlier work", "note": "At least one structure is not confirmed: it was looked up by name or label, or the drawing left a doubt.", "data": [{"smiles": "COc1cccc2c1C(=O)c1c(O)c3c(c(O)c1C2=O)C[C@@](O)(C(=O)CO)C[C@@H]3O[C@H]1C[C@H](N2C=CCC2)[C@H](O)[C@H](C)O1", "note": "[pDox, 2-pyrrolino doxorubicin]", "values": [{"measurement": "times more potent than doxorubicin", "value": 500}]}]}
